These results are taken from patent publication US11382898B2, “BAX activators and uses thereof in cancer therapy” (Albert Einstein College of Medicine, priority 2017, dated 2022).

The chains behind the UniProt entries cited, without tags or fusion partners.
UniProt Q07812, whole entry: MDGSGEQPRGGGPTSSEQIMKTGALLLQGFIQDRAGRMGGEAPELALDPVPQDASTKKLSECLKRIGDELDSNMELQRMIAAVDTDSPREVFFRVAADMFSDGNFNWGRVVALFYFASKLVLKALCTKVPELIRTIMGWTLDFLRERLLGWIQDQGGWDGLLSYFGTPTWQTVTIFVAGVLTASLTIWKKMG

In one data set the test system is OCI-AML3 leukemia cells. Nature of the data set: Synergistic cytotoxicity with BCL-2 inhibitors in OCI-AML3 leukemia cells. Type of data set: cell-based, human. To be noted: non-cytotoxic doses, 24 h.
The conditions of data set [1]: mouse, in vivo.
The subject of a further data set is THP-1 cells. As to conditions: non-cytotoxic doses of BTSA1, 24 h.
The next data set has as its target BAX (Homo sapiens, UniProt Q07812).

Take `O=C1C(=NNc2nccs2)C(c2ccccc2)=NN1c1nc(-c2ccccc2)cs1` [BTSA1, 5-phenyl-2-(4-phenylthiazol-2-yl)-4-(2-(thiazol-2-yl)hydrazono)-2,4-dihydro-3H-pyrazol-3-one]: in the data set with OCI-AML3 leukemia cells, the “synergy with ABT-199 (venetoclax)” value was “significant synergistic cytotoxicity” and the “synergy with ABT-263 (navitoclax)” value was “significant synergistic cytotoxicity”. The “toxicity, tolerance” value in data set [1] was “no detectable toxicity”. Also, in the data set on THP-1 cells, the “synergy with ABT-199 (venetoclax)” value is reported as “significant synergistic cytotoxicity” and the “synergy with ABT-263 (navitoclax)” value was “significant synergistic cytotoxicity”. Moreover, the “mitochondrial outer membrane permeabilization, cytochrome c release” value at BAX is “release of cytochrome c from mitochondria”.
